{"source": "PubChem BioAssay AID504834", "about": "(National Center for Advancing Translational Sciences (NCATS), 2011)", "note": "Hit rate of the full screen: of about 320,000 compounds, about 22,000 (6.9%) were called active. The shares of active, inactive and inconclusive entries below differ from those in the screen. Calls follow the shape of the dose curve; as a rule, active = well fitted inhibition curve with a large enough effect; inconclusive = small, poorly fitted or top-dose-only effect, or another doubt; inactive = no such curve, though single readings can be large or run the other way. A potency beside an inconclusive call is a rough fit, not a confirmed value. Where a SMILES comes first, the peptide text is derived from it. Potency is read from the fitted curve at half-maximal effect.", "data": [{"test": "Primary qHTS for delayed death inhibitors of the malarial parasite plastid, 96 hour incubation", "details": "P. falciparum luciferase reporter growth; series mostly up to 28.7 µM", "procedure,_shortened": "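P. falciparum expressing integrated firefly luciferase, in erythrocytes at 2% hematocrit, 0.05% parasitemia, incubated with compounds 96 h at 37 C, 5% CO2. Growth inhibition read as loss of luminescence; two-generation exposure targets delayed-death apicoplast inhibitors.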", "values": [{"smiles": "O=C(Nc1ccccc1OC(F)F)c1ccc(F)cc1", "Potency": "inactive"}, {"smiles": "O=C(CCC(=O)N1CCN(c2cccc(Cl)c2)CC1)c1cccs1", "Potency": "inactive"}, {"smiles": "O=C(Cc1ccc([N+](=O)[O-])cc1)N1N=C(C2CC2)CC1(O)C(F)(F)F", "note": "(stereo unspecified)", "Potency": "inconclusive: 18.5 µM [inhibitor, single point]"}, {"smiles": "Cc1cncc(C(=O)O)[n+]1[O-]", "Potency": "inactive"}, {"smiles": "Cn1c(=O)n(CC(N)=O)c(=O)c2c1nc1n2CCCN1Cc1ccccc1", "Potency": "inactive"}, {"smiles": "COc1ccc(NC2=NCC(Cc3ccc(Br)cc3)S2)cc1", "note": "(stereo unspecified)", "Potency": "inconclusive: 9.28 µM [inhibitor, partial curve, poor fit]"}, {"smiles": "Cc1cc(NC(=O)C2=C(O)c3ccccc3S(=O)(=O)N2C)no1", "Potency": "inconclusive: 6.01 µM [inhibitor, partial curve]"}, {"smiles": "Cc1cccc(N(C)S(=O)(=O)c2ccc3[nH]c(=O)c(=O)[nH]c3c2)c1", "Potency": "inconclusive: 0.0029 µM [inhibitor, full curve, poor fit]"}, {"smiles": "O=S(=O)(NCC(c1cccnc1)N1CCN(c2ccc(F)cc2)CC1)c1cccs1", "note": "(stereo unspecified)", "Potency": "inactive"}, {"smiles": "O=C1CCCN1CC(CN1CCOCC1)Sc1nc2ccccc2c(=O)n1-c1ccccc1", "note": "(stereo unspecified)", "Potency": "inconclusive: 10.4 µM [inhibitor, single point]"}, {"smiles": "C=CCn1c(NCc2ccccc2OC)nc2ccccc21", "Potency": "inconclusive: 4.15 µM [inhibitor, single point]"}, {"smiles": "COC(=O)Cn1c(=N)n(CCN2CCCCC2)c2ccccc21", "Potency": "inactive"}, {"smiles": "CCCC(C)NC(=O)Cn1c(=O)c2c(ncn2CCC(C)C)n(Cc2ccccc2)c1=O", "note": "(stereo unspecified)", "Potency": "inconclusive: 8.28 µM [inhibitor, partial curve]"}, {"smiles": "Cc1nn(-c2ccccc2)c(N2CCCC2)c1/C=C1\\N=C(c2ccc(F)cc2)OC1=O", "Potency": "inactive"}, {"smiles": "CC1=C(C(=O)OCC(C)C)C(c2cc3c(cc2Br)OCO3)NC(=O)N1C", "note": "(stereo unspecified)", "Potency": "inactive"}, {"smiles": "CCCCCC(=O)Nc1cccc(C2=NOC3(C2)C[C@H](C(N)=O)N(C(=O)COc2ccc(Cl)cc2)C3)c1", "note": "(stereo partly specified)", "Potency": "inconclusive: 10.4 µM [inhibitor, single point]"}, {"smiles": "CN(Cc1c(C(=O)N/N=C/c2cccc(O)c2)nnn1-c1nonc1N)c1ccccc1", "Potency": "inactive"}, {"smiles": "CCC[N+]1(CC#CCC(c2ccccc2)c2ccccc2)CCCCC1", "Potency": "inconclusive: 1.65 µM [inhibitor, full curve, poor fit]"}, {"smiles": "NC(=O)c1cc(S(=O)(=O)NC2CCCCC2)co1", "Potency": "inactive"}, {"smiles": "CCC(C)NS(=O)(=O)c1ccc(OCC(=O)N2CCCC2)cc1", "note": "(stereo unspecified)", "Potency": "inconclusive: 0.0033 µM [inhibitor, full curve, poor fit]"}, {"smiles": "CC1CCN(C(=O)c2ccc(-c3ccccc3Cl)o2)CC1", "Potency": "inactive"}, {"smiles": "Cc1nn(Cc2c(F)c(F)c(F)c(F)c2F)c(C)c1NC(=O)c1ccc(COc2ccccc2Cl)o1", "Potency": "inconclusive: 5.86 µM [inhibitor, single point]"}, {"smiles": "CCOc1ccc(S(=O)(=O)N2CCOCC2)cc1NC(=O)C1=COCCO1", "Potency": "inactive"}, {"smiles": "CCOC(=O)C1CCN(C(=O)Cc2ccc(-c3ccccc3)cc2)CC1", "Potency": "inactive"}, {"smiles": "COc1ccc(CNC(=O)CCSc2ccc(F)cc2)cc1OC", "Potency": "inactive"}, {"smiles": "Cc1oc(/C=N/NS(=O)(=O)c2ccccc2)cc1Br", "Potency": "inconclusive: 18.5 µM [inhibitor, single point]"}, {"smiles": "CCCCN1C(=O)N(C)C2C1N(C)C(=O)N2CCCC", "note": "(stereo unspecified)", "Potency": "inconclusive: 1.65 µM [inhibitor, full curve, poor fit]"}, {"smiles": "CC(=O)Nc1ccc(C(=O)Cn2c3[n+](c4c(F)c(F)ccc42)CCCCC3)cc1", "Potency": "inconclusive: 3.29 µM [inhibitor, partial curve, poor fit]"}, {"smiles": "CCOC(=O)C1CCN(C(=O)c2ccc3c(=O)n4nc(Nc5cc(C)ccc5C)sc4nc3c2)CC1", "Potency": "active: 2.94 µM"}, {"smiles": "COc1ccc(C(=O)COC(=O)CNC(=O)c2ccccc2)cc1F", "Potency": "inconclusive: 14.7 µM [inhibitor, single point]"}, {"smiles": "C/C(CC(=O)Nc1ccc(C)c(Cl)c1)=N\\NC(=O)C1CCCCC1", "Potency": "inactive"}, {"smiles": "Cc1ccc(N(CC(O)CON=C2c3ccccc3-c3ccccc32)S(C)(=O)=O)cc1", "note": "(stereo unspecified)", "Potency": "inconclusive: 10.4 µM [inhibitor, single point]"}, {"smiles": "COc1ccc2nc(C)cc(Nc3ccccc3O)c2c1", "Potency": "inconclusive: 7.38 µM [inhibitor, partial curve]"}, {"smiles": "COC(=O)c1ccccc1NC(=O)CSc1nnc(-c2cccnc2)o1", "Potency": "inactive"}, {"smiles": "COc1ccc(NC(=O)CCCc2ccc(OC)c(C)c2)cc1", "Potency": "inconclusive: 18.5 µM [inhibitor, single point]"}, {"smiles": "CSc1nnc(C)c(=O)n1COC(=O)COc1ccc(Cl)cc1Cl", "Potency": "inconclusive: 18.5 µM [inhibitor, single point]"}, {"smiles": "O=C(CN1C(=O)/C(=C/c2ccccc2)SC1=S)N1CCN(CCc2ccccn2)CC1", "Potency": "inconclusive: 18.5 µM [inhibitor, single point]"}, {"smiles": "O=C1/C(=C/c2ccc([N+](=O)[O-])cc2)C=C(c2ccccc2)N1c1ccccc1", "Potency": "inconclusive: 13.1 µM [inhibitor, single point]"}, {"smiles": "Cc1cc(C(C)(C)CC(C)(C)C)ccc1OCCOCC[N+](C)(C)Cc1ccccc1", "Potency": "active: 0.465 µM"}, {"smiles": "COc1cc(/C=N/NC(=O)c2cc(C)n(-c3ccc(F)cc3)c2C)cc(OC)c1O", "Potency": "inconclusive: 0.233 µM [inhibitor, full curve, poor fit]"}, {"smiles": "CC(=O)N[C@@H](CC(=O)O)C(=O)N[C@@H](CCC(=O)O)C(=O)O", "note": "(Ac-Asp-Glu-OH)", "Potency": "active: 4.26 µM"}, {"smiles": "COc1ccc(C2CCCN2CC(O)COc2ccccc2C(C)C)cc1", "note": "(stereo unspecified)", "Potency": "active: 13.1 µM"}, {"smiles": "CCOC(=O)c1cc(-c2ccccc2)n(CC(=O)Nc2ccc(OC)c(OC)c2)c1C", "Potency": "inconclusive: 11.7 µM [inhibitor, single point]"}, {"smiles": "O=C(COC(=O)c1cc(S(=O)(=O)N2CCOCC2)ccc1Cl)NCc1ccco1", "Potency": "inactive"}, {"smiles": "CCn1cc(C(=O)N2CCN(c3ccc(C(C)=O)cc3)CC2)c2cc(OC)c(OC)cc2c1=O", "Potency": "inconclusive: 18.5 µM [inhibitor, single point]"}, {"smiles": "O=C(COc1ccc(Cl)cc1Cl)NNC(=S)NC(=O)c1ccco1", "Potency": "inactive"}, {"smiles": "Cc1cc(NC(=O)c2c(F)c(F)c(F)c(F)c2F)no1", "Potency": "inconclusive: 9.28 µM [inhibitor, single point]"}, {"smiles": "O=c1c2ccccc2[nH]c(=S)n1CCN1CCc2ccccc2C1", "Potency": "inconclusive: 10.4 µM [inhibitor, single point]"}, {"smiles": "Cc1ccc(C)c2nc(N3CCCC3)c(C#N)cc12", "Potency": "inconclusive: 18.5 µM [inhibitor, single point]"}, {"smiles": "CCOC(=O)N1CCN(C(=O)/C(=C/c2ccc(N(C)C)cc2)NC(=O)c2ccccc2)CC1", "Potency": "inconclusive: 7.38 µM [inhibitor, partial curve, poor fit]"}, {"smiles": "COC(=O)C1=C(C)NC(C)=C(C(=O)OC)C1c1ccccc1[N+](=O)[O-]", "Potency": "inconclusive: 11.7 µM [inhibitor, single point]"}, {"smiles": "COc1ccc(/C=N/NC(=O)COc2ccccc2-c2ccccc2)cc1", "Potency": "inconclusive: 8.28 µM [inhibitor, partial curve, poor fit]"}, {"smiles": "CC1CN(C(=O)CCNC(=O)c2ccc(Br)cc2)CC(C)O1", "note": "(stereo unspecified)", "Potency": "inactive"}, {"smiles": "C/C(=C\\c1ccc2c(c1)OCO2)C(=O)c1c(C)cc(C)[nH]c1=O", "Potency": "inconclusive: 18.5 µM [inhibitor, single point]"}, {"smiles": "CCC(CO)NS(=O)(=O)c1cc(-c2nn(C)c(=O)c3ccccc23)ccc1C", "note": "(stereo unspecified)", "Potency": "inactive"}, {"smiles": "CC(C)NC(=O)COC(=O)c1ccc(Oc2ccccc2)cc1", "Potency": "inactive"}, {"smiles": "CC(C)c1oc(=O)cc2c1[C@@H](O)[C@H]1OC(=O)[C@@]3(C)C[C@@H](O)[C@@H](O)[C@@]2(C)C13", "note": "(stereo partly specified)", "Potency": "active: 1.04 µM"}, {"smiles": "Cc1occc1C(=O)NNC(=O)c1cccc(F)c1", "Potency": "inactive"}, {"smiles": "CC(C)c1ccccc1NC(=O)Cn1c(/C=C/c2ccccc2)nc2ccccc21", "Potency": "inactive"}, {"smiles": "CCc1ccc2nc(NC(=O)C3CSC4(C)CCC(=O)N34)sc2c1", "note": "(stereo unspecified)", "Potency": "inactive"}, {"smiles": "Cc1ccc(C)c(NC(=O)C[n+]2ccccc2)c1", "Potency": "inconclusive: 8.28 µM [inhibitor, partial curve, poor fit]"}, {"smiles": "COc1ccc(C(C(=O)NC(C)(C)C)N(C(=O)CNC(=O)c2cccs2)c2cccnc2)cc1OC", "note": "(stereo unspecified)", "Potency": "inconclusive: 4.65 µM [inhibitor, partial curve]"}, {"smiles": "CN(/N=C/c1cc(Cl)cc(Cl)c1O)C(=S)NC(C)(C)C", "Potency": "inconclusive: 11.7 µM [inhibitor, single point]"}, {"smiles": "COc1cccc(NC(=O)c2cccs2)c1", "Potency": "inconclusive: 9.28 µM [inhibitor, partial curve, poor fit]"}, {"smiles": "O=C(O)c1cc(NC(=S)NC(=O)C(c2ccccc2)c2ccccc2)ccc1Cl", "Potency": "inconclusive: 7.38 µM [inhibitor, partial curve, poor fit]"}, {"smiles": "COc1nc(NCc2cccnc2)nc(NC2CCCCC2)n1", "Potency": "inconclusive: 16.5 µM [inhibitor, single point]"}, {"smiles": "CCOC(=O)Nc1cccc(OCC(=O)Nc2ccc(OC)cc2OC)c1", "Potency": "inconclusive: 11.7 µM [inhibitor, single point]"}, {"smiles": "CCc1ccc(NC(=O)Cn2c3[n+](c4c(F)c(F)ccc42)CCCCC3)cc1", "Potency": "inconclusive: 4.15 µM [inhibitor, partial curve, poor fit]"}, {"smiles": "Cc1ccccc1C(=O)NC1CCCCCCC1", "Potency": "inactive"}, {"smiles": "N=C1S/C(=C\\c2ccc(-c3cccc(Cl)c3)o2)C(=O)N1c1nccs1", "Potency": "inconclusive: 13.1 µM [inhibitor, single point]"}, {"smiles": "COc1ccc(-c2cc(C(=O)Nc3ccc(S(=O)(=O)Nc4onc(C)c4C)cc3)c3ccccc3n2)cc1OC", "Potency": "inconclusive: 11.7 µM [inhibitor, single point]"}]}]}
